Source: article PMC11947994

Protein sequences, listed by entry. Tags and fused reporters are not part of them.
UniProt P17931: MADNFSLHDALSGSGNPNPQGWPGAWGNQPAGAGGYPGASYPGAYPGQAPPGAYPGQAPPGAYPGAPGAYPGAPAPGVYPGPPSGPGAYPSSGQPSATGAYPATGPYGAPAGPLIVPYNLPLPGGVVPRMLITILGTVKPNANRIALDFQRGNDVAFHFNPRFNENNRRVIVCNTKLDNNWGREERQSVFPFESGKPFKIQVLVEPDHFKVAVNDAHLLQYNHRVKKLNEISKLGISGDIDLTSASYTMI
UniProt P33527: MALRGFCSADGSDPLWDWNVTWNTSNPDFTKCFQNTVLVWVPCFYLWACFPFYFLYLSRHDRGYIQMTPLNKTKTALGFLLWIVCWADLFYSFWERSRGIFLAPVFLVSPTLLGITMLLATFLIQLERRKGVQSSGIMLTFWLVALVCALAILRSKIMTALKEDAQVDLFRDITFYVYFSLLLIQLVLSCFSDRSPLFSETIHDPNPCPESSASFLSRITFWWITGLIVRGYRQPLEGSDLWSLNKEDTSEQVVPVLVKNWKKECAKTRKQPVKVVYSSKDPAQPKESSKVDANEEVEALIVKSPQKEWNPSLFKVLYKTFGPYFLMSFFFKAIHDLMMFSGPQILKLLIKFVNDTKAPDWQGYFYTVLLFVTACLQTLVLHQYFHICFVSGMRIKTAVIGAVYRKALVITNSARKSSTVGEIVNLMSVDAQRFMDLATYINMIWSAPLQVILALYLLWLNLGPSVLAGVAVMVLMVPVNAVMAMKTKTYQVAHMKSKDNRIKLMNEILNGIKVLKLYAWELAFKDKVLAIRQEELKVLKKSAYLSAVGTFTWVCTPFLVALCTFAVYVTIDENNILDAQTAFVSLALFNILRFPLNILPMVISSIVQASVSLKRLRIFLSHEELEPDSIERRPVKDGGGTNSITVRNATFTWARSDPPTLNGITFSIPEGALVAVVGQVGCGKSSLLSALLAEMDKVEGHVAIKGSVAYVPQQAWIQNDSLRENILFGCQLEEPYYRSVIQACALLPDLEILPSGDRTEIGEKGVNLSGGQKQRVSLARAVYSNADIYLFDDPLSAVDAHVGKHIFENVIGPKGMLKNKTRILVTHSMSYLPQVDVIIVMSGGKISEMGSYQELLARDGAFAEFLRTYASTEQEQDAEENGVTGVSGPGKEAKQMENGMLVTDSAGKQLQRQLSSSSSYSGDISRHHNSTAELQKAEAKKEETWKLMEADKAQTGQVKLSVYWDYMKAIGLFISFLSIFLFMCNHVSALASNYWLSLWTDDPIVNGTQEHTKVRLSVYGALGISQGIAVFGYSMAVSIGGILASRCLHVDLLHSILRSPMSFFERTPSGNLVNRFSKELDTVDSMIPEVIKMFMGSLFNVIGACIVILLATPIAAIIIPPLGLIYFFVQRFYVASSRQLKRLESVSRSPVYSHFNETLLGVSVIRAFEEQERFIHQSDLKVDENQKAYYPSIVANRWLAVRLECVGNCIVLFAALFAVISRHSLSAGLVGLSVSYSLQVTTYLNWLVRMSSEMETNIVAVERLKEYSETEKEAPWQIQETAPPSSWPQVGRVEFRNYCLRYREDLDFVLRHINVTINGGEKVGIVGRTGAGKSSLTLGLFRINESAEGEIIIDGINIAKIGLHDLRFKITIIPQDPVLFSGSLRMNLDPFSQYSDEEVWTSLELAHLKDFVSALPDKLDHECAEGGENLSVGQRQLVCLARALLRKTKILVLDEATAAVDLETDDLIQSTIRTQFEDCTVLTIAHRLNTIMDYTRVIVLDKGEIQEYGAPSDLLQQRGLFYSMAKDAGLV
UniProt P14618: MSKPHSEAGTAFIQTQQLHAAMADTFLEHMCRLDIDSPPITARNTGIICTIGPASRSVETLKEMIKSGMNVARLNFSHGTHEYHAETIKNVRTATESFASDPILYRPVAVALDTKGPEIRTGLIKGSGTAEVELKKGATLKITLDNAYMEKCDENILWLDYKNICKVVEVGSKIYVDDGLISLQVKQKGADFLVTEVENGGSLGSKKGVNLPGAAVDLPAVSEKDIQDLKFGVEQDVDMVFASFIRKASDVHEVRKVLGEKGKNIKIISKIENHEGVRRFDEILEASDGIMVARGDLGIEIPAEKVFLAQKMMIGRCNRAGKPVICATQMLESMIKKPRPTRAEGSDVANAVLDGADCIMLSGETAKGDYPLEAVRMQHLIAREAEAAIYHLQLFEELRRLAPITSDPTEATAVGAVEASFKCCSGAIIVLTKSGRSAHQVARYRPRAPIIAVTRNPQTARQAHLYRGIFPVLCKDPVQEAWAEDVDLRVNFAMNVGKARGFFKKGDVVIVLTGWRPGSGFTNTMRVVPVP

Target: Flag-Lgals3 (UniProt P17931)
Test: affinity purification with mass spectrometry; whole-cell lysates immunoprecipitated with Flag antibodies; products analysed by mass spectrometry (IP-MS); cells not named

binding | Substance
binds | ABCC1 (from UniProt P33527 1-1531)
binds | PKM2 (found by IP-MS) (from UniProt P14618 1-531) (enzyme)

No constants are given. Whether binding was seen depends on the method and setting. In cells and extracts the contact can be indirect. A yes stands for co-enrichment or nearness to the bait. Other partners may have been found.
